Reference: PubChem BioAssay AID686937 (Drosophila RNAi Screening Center, 2013)
Screen: 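Knock-downs that reduce output of a secreted reporter enzyme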 (primary screen). System: Drosophila S2 cells expressing secreted horseradish peroxidase. Reagents: long dsRNA against Drosophila genes. Time to read-out: about 5.5 days (5 days dsRNA, then 12 h reporter induction). Treatment: reporter expression induced after 5 days of dsRNA, read 12 h later; inducer not stated. Measurement: 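After 5 days of dsRNA and 12 h of reporter induction, medium peroxidase read by chemiluminescence and scored as per-plate z-score; higher values mean more reporter released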. Scale: z-score: higher = more reporter secreted into medium.
The deposit covers about 23,000 reagents; below is a random part of those with a known target gene and a result. 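Reduced-secretion tags in replicate 1 do not always agree with the z-scores; no criterion for assigning the tags was given.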 A plus sign joins genes that one reagent is predicted to hit. The record does not give: the amount of reagent.

The opening 7 records as a preview:
no.	gene	dsRNA	z-score, replicate 1	z-score, replicate 2	z-score, replicate 3	z-score, replicate 4	phenotype, replicate 1
1	U4-U6-60K	DRSC10624	-0.51	-0.37			
2	CG34347	DRSC14047	0.49	0.05			
3	CG34347	DRSC14305	-0.01	0.13			
4	CG34347	DRSC15104	-1.15	-0.79			
5	CG34347	DRSC15105	-1.26	-0.4			reduced secretion
6	Ppt1	DRSC17806	0.27	0.42			
7	Pits	DRSC19385	-1.84	-2.17			reduced secretion

The listing, from the start:
no.	gene	dsRNA	z-score, replicate 1	z-score, replicate 2	z-score, replicate 3	z-score, replicate 4	phenotype, replicate 1
1	U4-U6-60K	DRSC10624	-0.51	-0.37			
2	CG34347	DRSC14047	0.49	0.05			
3	CG34347	DRSC14305	-0.01	0.13			
4	CG34347	DRSC15104	-1.15	-0.79			
5	CG34347	DRSC15105	-1.26	-0.4			reduced secretion
6	Ppt1	DRSC17806	0.27	0.42			
7	Pits	DRSC19385	-1.84	-2.17			reduced secretion
8	Pits	DRSC19812	0.32	0.35	0.37	0.45	
9	CG42541	DRSC17973	0.47	0.33			
10	CG42541	DRSC18119	-5.94	-2.72			reduced secretion
11	CG42541	DRSC18120	0.49	0.63			
12	p-cup	DRSC19513	-0.97	-1.65			
13	CtBP	DRSC16617	0.04	-0.06			
14	CG8237	DRSC07119	0.51	0.46			
15	asp	DRSC16903	0.41	0.29			
16	CG1275	DRSC08294	0.29	0.42			
17	CG7236	DRSC03037	-0.12	-0.35			
18	CG10853	DRSC08164	0.46	0.31			
19	CG43689	DRSC18046	0.26	-0.34			
20	CG43689	DRSC18383	-0.55	-1.35			
21	CG43689	DRSC22467	0.89	0.21			
22	Argk2	DRSC10483	0.47	0.22			
23	Eig71Ee	DRSC11152	0.69	0.43			
24	dnd	DRSC16064	0.29	0.47			
25	Obp99a	DRSC15303	-0.51	-1.7			
26	CG9302	DRSC03191	0.7	0.53			
27	Prx6a	DRSC00565	0.4	0.52			
28	MagR	DRSC20092	-0.23	-1.79			
29	CG30376	DRSC05086	0.8				
30	cysu	DRSC15902	0.37	0.32			
31	CG13737	DRSC10064	-0.18	-0.29			
32	CG31633	DRSC02275	0.22	0.09			
33	brat	DRSC03497	-0.14	0.1			
34	CG3156	DRSC18503	0.5	0.37			
35	Sf3b3	DRSC08370	0.33	-0.02			
36	CG17221	DRSC00487	0.11	0.1			
37	jb	DRSC20531	0.47	0.25			
38	TMEM216	DRSC16378	0.24	0.33			
39	CG14538 (retired record)	DRSC02396	0.37	0.43			
40	Nup107	DRSC01999	-1.68	-0.95			reduced secretion
41	amx	DRSC18736	0.12	-0.25			
42	CG11892	DRSC14428	0.31	0.2			
43	lbk	DRSC07178	0.23	0.35			
44	hay	DRSC11354	-5.2	-6.84			reduced secretion
45	CG7953	DRSC01902	0.29	0.02			
46	GstE8	DRSC06678	0.34	0.48			
47	CG17601	DRSC20639	0.57	0.25			
48	mgl	DRSC17800	0.3	0.46			
49	mgl	DRSC17823	0.19	0.54			
50	mgl	DRSC17859	0.51	0.86			
51	mgl	DRSC18004	0.51	0.56			
52	Utx	DRSC02872	-0.23	0.2			
53	asf1	DRSC11324	0.83	0.69			
54	Nepl9	DRSC02255	0.41	0.3			
55	PTP-ER	DRSC04636	0.63	0.41			
56	CG11593	DRSC08206	0.41	0.33			
57	Polr2C	DRSC03415	-4.16	-3.73			reduced secretion
58	CG11741	DRSC14367	-0.03	0.5			
59	CG12470	DRSC18620	0.4	0.33			
60	CG2921	DRSC04324	-0.04	-0.07			
61	PolE2	DRSC09737	0.5	0.37			
62	VAChT	DRSC13311	0.24	0.33			
63	VAChT	DRSC16608	0.12	0.38			
64	CG4586	DRSC18373	0.41	0.38			
65	Or67d	DRSC10158	-0.02	0.24			
66	CG10927	DRSC06014	-5.25	-4.1			reduced secretion
67	CG1607	DRSC15130	0.29	-0.13			
68	OXA1L	DRSC09672	0.11	-0.15			
69	CG12056	DRSC17796	0.52	0.36			
70	CG41020 (retired record)	DRSC20866	0.01	0.68			
71	stwl	DRSC11400	0.39	-0.16			
72	CG15480	DRSC02490	-0.06	0.15			
73	CG10505	DRSC04075	0.04	0.36			
74	sqa	DRSC06693	0.07	0.04			
75	sqa	DRSC21635	-0.19	-0.26			
76	Chsy	DRSC20175	0.38	0.47			
77	Chsy	DRSC20176	0.58	0.48	-0.4	0.24	
78	CG1354	DRSC17902	0.29	-0.1			
79	l(2)efl	DRSC04698	0.22	0.15			
80	CG18649	DRSC10334	0.21	0.29			
81	Adk2	DRSC09827	-0.12	-0.01			
82	blow	DRSC07586	0.35	0.34			
83	gt	DRSC18782	-0.25	0.52			
84	tadr	DRSC03177	0.48	0.35			
85	mRpS11	DRSC15732	-0.31	-0.93			
86	CG14556	DRSC14899	0.45	0.27			
87	CG6873	DRSC20014	-0.73	0.19			
88	Grasp65	DRSC10917	0.07	0.11			
89	CG15080	DRSC06511	0.45	0.23			
90	CG5793 + Obp93a	DRSC15220	-0.25	-0.42			
91	CG13871	DRSC06430	0.17	0.04			
92	CG13998	DRSC02330	0.42	0.2			
93	CG6472	DRSC06989	0.31	0.26			
94	CG9733	DRSC16549	0.19	0.12			
95	CG14270	DRSC17913	-0.37	-0.69			
96	msk	DRSC11340	-2.37	-2.01			reduced secretion
97	Dpy-30L1	DRSC02959	0.58	0.47			
98	CG6231	DRSC15997	0.38	0.52			
99	CG9586	DRSC03270	0.31	0.26			
100	CG31788	DRSC01630	0.08	-0.08			
101	ND-18	DRSC19441	0.09	0.28			
102	Atxn7	DRSC00726	0.44	0.36			
103	CG4891	DRSC01936	0.25	0.3			
104	Vm26Ab	DRSC03473	0.46	0.26	0.48	0.04	
